Assay [1] has as its target T1, CCN1 (CYR61) (human (endogenous in 1064Sk human skin fibroblasts)) (UniProt O00622).
T1 sequence: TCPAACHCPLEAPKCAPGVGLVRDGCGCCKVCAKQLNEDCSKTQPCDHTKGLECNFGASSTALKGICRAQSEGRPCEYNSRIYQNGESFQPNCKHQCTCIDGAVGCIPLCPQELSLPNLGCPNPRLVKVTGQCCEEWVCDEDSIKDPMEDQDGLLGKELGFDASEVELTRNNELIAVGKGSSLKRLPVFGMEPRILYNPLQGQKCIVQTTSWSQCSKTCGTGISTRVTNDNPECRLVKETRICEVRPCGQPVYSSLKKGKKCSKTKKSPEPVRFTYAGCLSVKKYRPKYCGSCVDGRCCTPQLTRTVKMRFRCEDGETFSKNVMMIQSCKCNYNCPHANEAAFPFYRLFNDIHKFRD
In words: condition: only after pre-incubation of cells with 1 µM RAP; co-IP; as a1, but 1 µM recombinant RAP added to the medium and incubated with the cells for 30 min before cell lysis.

For assay [2], the target named is T1, CCN1 (CYR61) (human (endogenous in 1064Sk human skin fibroblasts)). In words: co-IP; lysate of human skin fibroblasts (IP buffer: 20 mM Tris-HCl pH 7.5, 150 mM NaCl, 1 mM MgCl2, 1 mM CaCl2, 1% Triton X-100) precipitated with rabbit polyclonal anti-CCN1 antibody overnight at 4°C, Protein A/G agarose; 515 kDa LRP1 subunit blotted under non-reducing conditions.

These are yes or no findings as the source states them, for the method shown. In cells and extracts the contact can be indirect. For some assays here: A result given as binding can be weak or reduced; the word gives no strength.

Turning to “low density lipoprotein receptor-related protein 1 (LRP1)”, the binding entry in assay [1] is reported as “no binding”; in assay [2], “binds”.

The values are drawn from PMC3281933.
